Measurements taken from the supplement of paper PMC8104966.
Where “and” joins values, the source holds several entries; their conditions need not be identical. Equal values may be shown once. ± gives the standard deviation of the averaged measurements. The list shows a part of the results. Repeats in this data set agree poorly, so a single value says little.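 U2OS cells carrying ACE2 were mixed with U2OS cells carrying full-length spike, and fusion was scored by imaging as the share of nuclei showing both cell types' fluorescent markers. A compound counts as an inhibitory hit when it is non-toxic and its fusion z-score falls below -3, meaning more than three standard deviations below the plate's DMSO wells.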

System: U2OS ACE2 x SARS-CoV-2 spike co-culture
Test: cell-cell fusion (fraction fused) z-score vs plate DMSO control; higher = more fusion
Details: 30 µM; 5 h; toxicity class: non-toxic, passed QC

SMILES | cell-cell fusion (z-score)
CC(C)COC(=O)OCN1C(=O)CN(CCN2CC(=O)N(COC(=O)OCC(C)C)C(=O)C2)CC1=O [Sobuzoxane] | inactive: 1.23
Cc1ccc(-n2nc(C(C)(C)C)cc2NC(=O)Nc2ccc(OCCN3CCOCC3)c3ccccc23)cc1 [BIRB 796 (Doramapimod)] | -3.77 ± 3.3
CNC1(C)C2CCC(C2)C1(C)C.Cl (stereo not given) | inactive: 0.957
CNC1(C)C2CCC(C2)C1(C)C.Cl (stereo not given) [Mecamylamine hydrochloride] | inactive: 1.42
O=C([O-])c1cc(=O)c2c(OCC(O)COc3cccc4oc(C(=O)[O-])cc(=O)c34)cccc2o1.[Na+].[Na+] | inactive: 1.34
C[N+]12CC[C@@]34c5ccccc5N5C(=O)CC6OCC=C(C1)[C@H](CC32)[C@@H]6C54.[I-] (stereo not given in full) | inactive: 2.59
COc1cc(OC)c2c(=O)c(-c3ccccc3OC)coc2c1 | inactive: 4.57
Cc1ccc(C(=O)c2ccc(CC(=O)[O-])n2C)cc1.[Na+] | inactive: 1.83
O=C(Nc1ccc([N+](=O)[O-])cc1Cl)c1cc(Cl)ccc1O [Niclosamide] | inactive: 2.42
O=C(/C=C/c1ccc(O)c(O)c1)OCCc1ccccc1 | active: -4.58
Cn1cc(-c2ccc3nnc(C(F)(F)c4ccc5ncccc5c4)n3n2)cn1 | inactive: 0.499
COc1ccc(-c2coc3cc(O)ccc3c2=O)c(O)c1O | inactive: 2.11
N#CC(C#N)=C/C(N)=C(/C#N)c1cc(O)c(O)c(O)c1 [Tyrphostin 51] | inactive: 5.08
COc1ccc2[nH]c3c(c2c1)CCNC3 [6-Methoxy-1,2,3,4-tetrahydro-9H-pyrido[3,4b] indole] | inactive: 2.55
COc1cc(Cc2cnc(N)nc2N)cc(OC)c1OC [Trimethoprim] | inactive: 2.75
O=c1[nH]c2ccccc2n1CCN1CCN(c2cccc(C(F)(F)F)c2)CC1 [Flibanserin] | inactive: 1.2
COC(=O)[C@@H](N)Cc1ccc(O)c(O)c1.Cl [L-3,4-Dihydroxyphenylalanine methyl ester hydrochloride] | inactive: 1.05
Cl.NNC(N)=O [Semicarbazide hydrochloride] | inactive: 1.56
CS(=O)c1ccc(-c2nc(-c3ccc(F)cc3)c(-c3ccncc3)[nH]2)cc1 (stereo not given) | inactive: 1.55 and inactive: 0.144
Cl.NCCc1ccc(O)c(O)c1 [Dopamine hydrochloride] | inactive: 1.09

Some of the entries so far, with tabs:
SMILES	cell-cell fusion (z-score)
COc1cc(OC)c2c(=O)c(-c3ccccc3OC)coc2c1	inactive: 4.57
Cc1ccc(C(=O)c2ccc(CC(=O)[O-])n2C)cc1.[Na+]	inactive: 1.83
